Results: the supplement of paper PMC10849652
The other results are listed elsewhere or left out.

The chains behind the UniProt entries cited, without tags or fusion partners. Where a name states a change or a piece, a line headed by the entry shows the natural chain unless it says otherwise.
UniProt P24311, whole entry, looked up: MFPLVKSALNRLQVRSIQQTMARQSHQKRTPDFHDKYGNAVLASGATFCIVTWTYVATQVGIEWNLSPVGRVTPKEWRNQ
UniProt Q9BWP8: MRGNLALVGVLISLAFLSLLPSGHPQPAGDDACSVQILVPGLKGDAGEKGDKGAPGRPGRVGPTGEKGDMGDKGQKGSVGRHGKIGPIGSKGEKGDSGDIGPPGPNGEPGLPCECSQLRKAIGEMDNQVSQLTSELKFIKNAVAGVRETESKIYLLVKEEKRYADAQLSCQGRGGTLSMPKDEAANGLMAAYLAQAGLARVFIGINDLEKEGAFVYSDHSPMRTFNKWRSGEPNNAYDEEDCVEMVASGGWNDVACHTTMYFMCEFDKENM
UniProt Q9P003: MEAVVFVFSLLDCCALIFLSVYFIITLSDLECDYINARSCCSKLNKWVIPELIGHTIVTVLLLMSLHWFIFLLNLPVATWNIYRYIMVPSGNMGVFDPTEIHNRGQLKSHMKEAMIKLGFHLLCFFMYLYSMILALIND
UniProt Q9H3G5: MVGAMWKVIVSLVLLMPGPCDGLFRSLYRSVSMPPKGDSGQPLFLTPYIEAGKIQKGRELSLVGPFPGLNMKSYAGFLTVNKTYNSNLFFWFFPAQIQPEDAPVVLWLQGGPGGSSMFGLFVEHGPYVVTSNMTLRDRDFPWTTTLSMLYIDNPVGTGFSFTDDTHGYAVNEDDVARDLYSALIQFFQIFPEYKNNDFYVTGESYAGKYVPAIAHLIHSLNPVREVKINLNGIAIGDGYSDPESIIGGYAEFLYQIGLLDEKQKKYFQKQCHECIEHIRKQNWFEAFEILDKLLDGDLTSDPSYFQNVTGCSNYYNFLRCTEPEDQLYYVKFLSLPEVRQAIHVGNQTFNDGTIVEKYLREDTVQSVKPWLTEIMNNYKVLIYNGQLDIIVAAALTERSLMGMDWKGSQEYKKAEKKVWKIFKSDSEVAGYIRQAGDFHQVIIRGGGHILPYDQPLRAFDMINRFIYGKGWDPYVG
UniProt Q05707: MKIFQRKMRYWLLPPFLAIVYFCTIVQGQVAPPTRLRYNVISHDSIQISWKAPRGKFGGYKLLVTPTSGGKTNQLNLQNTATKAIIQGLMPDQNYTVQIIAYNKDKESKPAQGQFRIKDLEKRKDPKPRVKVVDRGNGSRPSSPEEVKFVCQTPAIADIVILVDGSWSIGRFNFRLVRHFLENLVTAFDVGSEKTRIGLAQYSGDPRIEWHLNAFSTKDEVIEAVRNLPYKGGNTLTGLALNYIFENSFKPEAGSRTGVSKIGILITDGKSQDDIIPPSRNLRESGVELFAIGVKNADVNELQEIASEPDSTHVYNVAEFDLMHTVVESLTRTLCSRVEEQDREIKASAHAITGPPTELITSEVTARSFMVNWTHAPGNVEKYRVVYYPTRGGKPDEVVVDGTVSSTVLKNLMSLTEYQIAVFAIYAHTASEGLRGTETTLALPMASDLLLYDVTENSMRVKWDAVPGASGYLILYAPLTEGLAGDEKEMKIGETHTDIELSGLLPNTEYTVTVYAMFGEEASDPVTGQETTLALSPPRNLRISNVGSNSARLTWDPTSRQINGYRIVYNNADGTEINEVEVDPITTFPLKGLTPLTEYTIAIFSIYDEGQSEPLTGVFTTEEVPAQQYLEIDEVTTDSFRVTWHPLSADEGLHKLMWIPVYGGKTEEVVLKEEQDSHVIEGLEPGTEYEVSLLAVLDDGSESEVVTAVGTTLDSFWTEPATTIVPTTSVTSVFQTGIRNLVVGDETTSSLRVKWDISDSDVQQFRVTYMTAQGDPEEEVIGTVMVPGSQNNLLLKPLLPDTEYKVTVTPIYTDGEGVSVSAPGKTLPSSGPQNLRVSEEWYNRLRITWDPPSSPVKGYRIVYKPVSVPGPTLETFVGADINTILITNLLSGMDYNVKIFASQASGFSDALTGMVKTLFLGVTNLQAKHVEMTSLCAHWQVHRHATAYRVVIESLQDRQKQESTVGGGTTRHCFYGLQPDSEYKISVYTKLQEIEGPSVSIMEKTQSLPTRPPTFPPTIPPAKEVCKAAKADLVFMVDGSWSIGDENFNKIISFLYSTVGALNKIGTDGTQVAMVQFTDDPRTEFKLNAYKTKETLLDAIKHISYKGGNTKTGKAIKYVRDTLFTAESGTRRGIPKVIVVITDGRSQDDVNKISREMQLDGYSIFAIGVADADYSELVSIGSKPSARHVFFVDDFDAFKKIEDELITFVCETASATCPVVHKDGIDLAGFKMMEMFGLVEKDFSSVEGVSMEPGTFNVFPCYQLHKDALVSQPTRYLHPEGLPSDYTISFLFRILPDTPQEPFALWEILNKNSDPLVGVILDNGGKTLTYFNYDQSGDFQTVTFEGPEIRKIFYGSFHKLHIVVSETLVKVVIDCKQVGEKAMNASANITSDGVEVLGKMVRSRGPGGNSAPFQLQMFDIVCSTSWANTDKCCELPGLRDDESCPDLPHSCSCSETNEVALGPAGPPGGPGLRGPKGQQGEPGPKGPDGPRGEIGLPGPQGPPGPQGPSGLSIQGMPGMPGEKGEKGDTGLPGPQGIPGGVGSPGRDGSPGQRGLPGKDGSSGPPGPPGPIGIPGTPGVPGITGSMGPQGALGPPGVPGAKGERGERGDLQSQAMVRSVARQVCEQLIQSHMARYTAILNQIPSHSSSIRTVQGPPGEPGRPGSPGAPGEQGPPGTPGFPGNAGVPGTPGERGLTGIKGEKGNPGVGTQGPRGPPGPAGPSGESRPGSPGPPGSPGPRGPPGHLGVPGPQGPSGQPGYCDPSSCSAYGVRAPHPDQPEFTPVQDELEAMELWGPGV
UniProt O14810: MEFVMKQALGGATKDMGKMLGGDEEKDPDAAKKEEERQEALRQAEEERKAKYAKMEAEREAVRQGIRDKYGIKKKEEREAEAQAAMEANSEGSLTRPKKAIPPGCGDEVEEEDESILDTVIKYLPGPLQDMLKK
UniProt Q9UNS2: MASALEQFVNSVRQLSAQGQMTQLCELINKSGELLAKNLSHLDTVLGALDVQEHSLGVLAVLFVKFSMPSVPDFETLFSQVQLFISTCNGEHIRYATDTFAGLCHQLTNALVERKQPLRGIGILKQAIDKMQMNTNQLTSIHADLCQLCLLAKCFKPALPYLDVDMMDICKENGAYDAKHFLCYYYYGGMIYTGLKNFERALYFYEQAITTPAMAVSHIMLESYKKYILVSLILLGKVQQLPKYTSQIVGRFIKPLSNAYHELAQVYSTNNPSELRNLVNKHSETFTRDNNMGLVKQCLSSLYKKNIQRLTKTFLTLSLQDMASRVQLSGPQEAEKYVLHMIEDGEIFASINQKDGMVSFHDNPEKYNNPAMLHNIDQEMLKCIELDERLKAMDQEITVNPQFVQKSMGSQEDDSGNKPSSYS
UniProt Q7Z7A1: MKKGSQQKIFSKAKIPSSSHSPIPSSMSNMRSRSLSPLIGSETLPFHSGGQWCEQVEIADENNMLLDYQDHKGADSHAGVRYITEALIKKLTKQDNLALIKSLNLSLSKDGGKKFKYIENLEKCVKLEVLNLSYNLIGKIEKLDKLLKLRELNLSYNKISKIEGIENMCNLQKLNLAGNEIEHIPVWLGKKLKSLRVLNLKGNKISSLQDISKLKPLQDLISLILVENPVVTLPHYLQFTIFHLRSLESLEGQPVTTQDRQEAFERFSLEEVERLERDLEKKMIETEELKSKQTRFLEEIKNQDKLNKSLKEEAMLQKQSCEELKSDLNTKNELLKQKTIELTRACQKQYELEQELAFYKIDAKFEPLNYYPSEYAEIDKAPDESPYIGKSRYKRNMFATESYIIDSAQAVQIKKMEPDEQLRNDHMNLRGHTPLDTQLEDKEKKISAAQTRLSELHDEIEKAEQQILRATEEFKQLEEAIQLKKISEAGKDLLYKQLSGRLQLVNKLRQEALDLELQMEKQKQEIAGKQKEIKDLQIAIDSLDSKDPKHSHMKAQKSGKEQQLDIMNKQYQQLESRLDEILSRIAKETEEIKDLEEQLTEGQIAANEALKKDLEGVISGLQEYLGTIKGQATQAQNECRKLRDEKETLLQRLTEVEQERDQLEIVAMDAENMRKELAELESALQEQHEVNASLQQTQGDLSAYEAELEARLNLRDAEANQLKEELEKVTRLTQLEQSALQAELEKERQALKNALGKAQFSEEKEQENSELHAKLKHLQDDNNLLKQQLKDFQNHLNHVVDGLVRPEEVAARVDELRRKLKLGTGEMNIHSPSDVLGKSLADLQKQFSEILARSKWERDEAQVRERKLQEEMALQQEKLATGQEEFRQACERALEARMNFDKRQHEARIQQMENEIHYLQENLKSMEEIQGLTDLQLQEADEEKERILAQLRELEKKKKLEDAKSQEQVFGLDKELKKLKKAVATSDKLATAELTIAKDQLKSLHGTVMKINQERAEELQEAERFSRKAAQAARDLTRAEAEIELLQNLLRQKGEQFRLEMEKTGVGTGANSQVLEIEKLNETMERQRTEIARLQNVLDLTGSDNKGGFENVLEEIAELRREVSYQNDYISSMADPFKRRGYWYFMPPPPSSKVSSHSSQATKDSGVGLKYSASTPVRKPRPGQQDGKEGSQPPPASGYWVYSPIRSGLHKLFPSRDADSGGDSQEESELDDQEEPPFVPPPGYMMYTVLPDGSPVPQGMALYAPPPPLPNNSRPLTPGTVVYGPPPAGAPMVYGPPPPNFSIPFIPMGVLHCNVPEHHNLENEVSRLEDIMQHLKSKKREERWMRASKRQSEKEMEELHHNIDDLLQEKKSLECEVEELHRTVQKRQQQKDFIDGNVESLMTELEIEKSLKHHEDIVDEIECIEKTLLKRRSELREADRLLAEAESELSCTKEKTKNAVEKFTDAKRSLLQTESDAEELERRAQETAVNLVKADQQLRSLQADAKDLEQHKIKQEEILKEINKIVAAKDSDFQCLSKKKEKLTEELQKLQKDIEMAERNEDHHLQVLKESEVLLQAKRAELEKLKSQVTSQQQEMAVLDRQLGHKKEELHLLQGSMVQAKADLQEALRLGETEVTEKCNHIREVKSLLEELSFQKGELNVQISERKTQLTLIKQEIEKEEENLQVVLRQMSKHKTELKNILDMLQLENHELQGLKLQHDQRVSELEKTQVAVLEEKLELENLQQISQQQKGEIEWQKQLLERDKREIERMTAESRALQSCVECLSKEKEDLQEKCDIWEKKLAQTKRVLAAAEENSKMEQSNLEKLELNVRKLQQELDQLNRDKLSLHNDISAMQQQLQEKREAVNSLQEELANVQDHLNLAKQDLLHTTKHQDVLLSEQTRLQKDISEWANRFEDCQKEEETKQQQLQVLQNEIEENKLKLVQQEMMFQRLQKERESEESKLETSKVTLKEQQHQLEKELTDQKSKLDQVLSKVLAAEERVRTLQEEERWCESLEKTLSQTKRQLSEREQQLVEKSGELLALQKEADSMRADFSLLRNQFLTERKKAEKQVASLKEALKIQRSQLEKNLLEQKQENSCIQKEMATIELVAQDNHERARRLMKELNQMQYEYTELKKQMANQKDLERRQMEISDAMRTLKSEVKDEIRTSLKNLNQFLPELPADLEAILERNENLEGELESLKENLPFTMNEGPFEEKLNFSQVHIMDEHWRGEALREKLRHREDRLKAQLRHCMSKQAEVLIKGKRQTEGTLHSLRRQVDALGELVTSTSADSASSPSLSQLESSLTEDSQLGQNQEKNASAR
UniProt Q96F85: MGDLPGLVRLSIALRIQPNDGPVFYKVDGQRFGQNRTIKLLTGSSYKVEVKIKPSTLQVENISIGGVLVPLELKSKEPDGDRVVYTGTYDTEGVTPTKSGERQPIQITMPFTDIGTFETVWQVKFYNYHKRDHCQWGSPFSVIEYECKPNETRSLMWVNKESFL
UniProt Q86WW8: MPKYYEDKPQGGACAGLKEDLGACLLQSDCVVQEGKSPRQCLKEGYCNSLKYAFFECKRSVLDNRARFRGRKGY
UniProt Q14061: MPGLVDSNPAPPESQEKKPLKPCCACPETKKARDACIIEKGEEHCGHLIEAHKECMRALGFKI
UniProt Q96FN4: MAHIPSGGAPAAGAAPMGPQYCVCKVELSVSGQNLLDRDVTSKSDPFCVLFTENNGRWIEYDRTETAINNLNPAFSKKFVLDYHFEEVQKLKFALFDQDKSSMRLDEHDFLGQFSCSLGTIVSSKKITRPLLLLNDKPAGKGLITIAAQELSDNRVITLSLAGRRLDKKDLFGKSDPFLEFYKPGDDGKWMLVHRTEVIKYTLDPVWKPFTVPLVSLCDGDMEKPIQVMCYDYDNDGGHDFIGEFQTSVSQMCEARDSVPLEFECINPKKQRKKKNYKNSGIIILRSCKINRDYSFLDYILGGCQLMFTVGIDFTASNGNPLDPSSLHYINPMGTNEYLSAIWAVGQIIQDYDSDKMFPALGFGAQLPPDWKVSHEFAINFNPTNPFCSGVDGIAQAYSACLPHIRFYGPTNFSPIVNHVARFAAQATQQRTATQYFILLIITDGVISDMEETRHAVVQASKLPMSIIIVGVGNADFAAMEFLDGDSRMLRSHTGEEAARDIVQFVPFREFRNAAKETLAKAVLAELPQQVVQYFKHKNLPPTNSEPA
UniProt Q7Z4G1, whole entry, looked up: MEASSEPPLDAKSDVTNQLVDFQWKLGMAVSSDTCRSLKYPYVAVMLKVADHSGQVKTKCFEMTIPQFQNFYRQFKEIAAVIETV

compound: CCCS(=O)(=O)Nc1ccc(F)c(C(=O)c2c[nH]c3ncc(-c4ccc(Cl)cc4)cc23)c1F [vemurafenib]; assay: log2 fold change, soluble protein after heating vs DMSO (PISA); higher = thermal stabilisation; K562 lysate, 10 uM; active = over 0.2 and 3.5 SD of the protein, either way, in both replicates (recomputed)
In short: (§1)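 Dounce homogenisation of K562 pellets in PBS pH 7.4 with 1 mM MgCl2 produced a crude extract, used at 1 mg/mL protein. Exposure to 10 μM compound lasted 30 min, and aliquots were then heated for 3 min across 48°C-58°C, pooled and brought to 0.5% NP-40 at 4°C. The supernatant after 21,000xg for 90 min was quantified by TMTpro 16plex LC-MS/MS with channel sums equalised. Duplicate values are given as log-two fold change in thermal stability relative to solvent controls.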

log2 fold change, inactive:
CNNM1 (UniProt Q9NRU3) 0.038
COX7B (UniProt P24311) 0.014
COLEC11 isoform 10 (UniProt Q9BWP8) -0.054
CNNM2 (UniProt Q9H8M5) 0.025
CNIH4 (UniProt Q9P003) 0.217
CPVL (UniProt Q9H3G5) 0.108
CNK3/IPCEF1 isoform 2 (UniProt G9CGD6) -0.062
COMTD1 (UniProt Q86VU5) -0.033
CPTP (UniProt Q5TA50) -0.054
COL14A1 (UniProt Q05707) -0.027
COL12A1 (UniProt Q99715) 0.239
CPNE8 (UniProt Q86YQ8) -0.429
CPLX1 (UniProt O14810) 0.034
COPS3 isoform 2 (UniProt Q9UNS2) 0.059
CNTRL (UniProt Q7Z7A1) 0.01
CNRIP1 (UniProt Q96F85) 0.103
CORO7 (UniProt P57737) -0.143
COA5 (UniProt Q86WW8) -0.02

compound: CCCS(=O)(=O)Nc1ccc(F)c(C(=O)c2c[nH]c3ncc(Cl)cc23)c1F; assay: as above
In short: as §1

log2 fold change, inactive:
COMMD3-BMI1 (UniProt R4GMX3) 0.203
COX7B (UniProt P24311) -0.047
CNNM2 (UniProt Q9H8M5) 0.024
CNIH4 (UniProt Q9P003) 0.064
COX17 (UniProt Q14061) -0.019
CPVL (UniProt Q9H3G5) -0.035
COP1 (UniProt Q8NHY2) -0.027
COMTD1 (UniProt Q86VU5) -0.083
COL25A1 (UniProt Q9BXS0) 0.207
COL14A1 (UniProt Q05707) -0.122
CPNE2 (UniProt Q96FN4) 0.001
COL12A1 (UniProt Q99715) 0.178
CPNE8 (UniProt Q86YQ8) -0.3
COMMD6 isoform 2 (UniProt Q7Z4G1) -0.007
COPS2 (UniProt P61201) 0.113
CPLX1 (UniProt O14810) 0.057
CORO6 isoform 5 (UniProt Q6QEF8) 0.045
COX14 (UniProt Q96I36) -0.005
COPS9 (UniProt Q8WXC6) -0.075
COPS3 isoform 2 (UniProt Q9UNS2) -0.049
CPA4 (UniProt Q9UI42) 0.142
CNRIP1 (UniProt Q96F85) -0.043

compound: CCN(CCCOc1ccc2c(Nc3cc(CC(=O)Nc4cccc(F)c4)[nH]n3)ncnc2c1)CCOP(=O)(O)O [barasertib]; assay: as above
In short: as §1

log2 fold change, inactive:
COMMD3-BMI1 (UniProt R4GMX3) -0.088
COLEC11 isoform 10 (UniProt Q9BWP8) -0.061
COL6A3 (UniProt P12111) 0.347
CNIH4 (UniProt Q9P003) 0.585
CPVL (UniProt Q9H3G5) -0.094
COMTD1 (UniProt Q86VU5) -0.133
COL25A1 (UniProt Q9BXS0) 0.08
COL14A1 (UniProt Q05707) 0.193
CPNE2 (UniProt Q96FN4) 0.032
CPNE8 (UniProt Q86YQ8) -0.359
COMMD6 isoform 2 (UniProt Q7Z4G1) 0.28
CNEP1R1 isoform 2 (UniProt Q8N9A8) 0.074
CORO6 isoform 5 (UniProt Q6QEF8) -0.008
CNTRL (UniProt Q7Z7A1) 0.011
CPA4 (UniProt Q9UI42) 0.357
CNRIP1 (UniProt Q96F85) -0.317
COA5 (UniProt Q86WW8) -0.104

compound: CC[C@@H]1C(=O)N(C)c2cnc(Nc3ccc(C(=O)NC4CCN(C)CC4)cc3OC)nc2N1C1CCCC1; assay: as above
In short: as §1

log2 fold change, inactive:
COX10 (UniProt Q12887) 0.11
COMMD3-BMI1 (UniProt R4GMX3) 0.059
CNNM1 (UniProt Q9NRU3) 0.041
COX7B (UniProt P24311) -0.01
COLEC11 isoform 10 (UniProt Q9BWP8) -0.085
CNNM2 (UniProt Q9H8M5) 0
CNIH4 (UniProt Q9P003) 0.051
CNK3/IPCEF1 isoform 2 (UniProt G9CGD6) 0.056
COMTD1 (UniProt Q86VU5) 0.002
CPTP (UniProt Q5TA50) -0.006
CPNE2 (UniProt Q96FN4) -0.063
COL12A1 (UniProt Q99715) 0.194
COMMD6 isoform 2 (UniProt Q7Z4G1) -0.106
COPS2 (UniProt P61201) 0.185
CPLX1 (UniProt O14810) -0.026
COQ8B (UniProt Q96D53) -0.03
COPS3 isoform 2 (UniProt Q9UNS2) 0.021
CNTRL (UniProt Q7Z7A1) 0.03
CORO7 (UniProt P57737) 0.089
COA5 (UniProt Q86WW8) 0.129
